# Data published in PMC8547962.
# These are yes or no findings as the source states them, for the method shown. Binding seen in cells or lysates may run through a third protein. Binding can be weak; no strength is given.
# B1: Truncated (∆2–50) P. falciparum mACP-HA2 expressed in E. coli (domain or fragment, UniProt Q8I0V5 51-157)
# chain: LSAQKNSAFFSTEKSQDLSSLSKEQIEEKILTVLKKYLPPDVEIKYDEELEKYNTKDNRAWDFLDTVEFLIDIESEFNITIPDETADNIKTVQEVIDYIIQLNIKKT
# Columns and labels:
# [1] = molecular target: P. falciparum Isd11 with C-terminal His6 tag expressed in E. coli (P. falciparum) (UniProt Q8IEK7); assay: pull-down + SEC; clarified lysate of E. coli coexpressing ∆2–50 mACP-HA2 and His-tagged Isd11; Ni-NTA pulldown of Isd11, imidazole eluate run over an S-100 size-exclusion column; Coomassie-stained SDS-PAGE and tandem MS
# [2] = molecular target: P. falciparum Isd11 with C-terminal His6 tag expressed in E. coli (P. falciparum) (UniProt Q8IEK7); assay: pull-down; Ni-NTA pulldown of Isd11-His6 from lysates of E. coli coexpressing ∆2–50 mACP-HA2 (WT or F113A); western blot with anti-HA and anti-His6
binder,measurement,setting,value
B1,binding,[1],binds
same,binding,[2],binds
